T. brucei: 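Whole-parasite assay of Trypanosoma brucei over 72 hours; the read-out is not stated. Concentration: 30 µM. The record gives no direction; compounds that gave an IC50 in retests scored well above the rest, so higher reads as stronger inhibition. Values scatter widely below zero; nearly all retest evidence comes from the higher of the two concentrations used. About 64,000 compounds were tested under these conditions; 1.5% (about 940) showed 50% or more at least once.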
Leishmania in macrophages: 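Cell assay of Leishmania donovani living inside macrophages; the read-out is not stated. Compounds at 30 µM. Direction is inferred from retests: higher values go with stronger inhibition. About 69,000 compounds were tested under these conditions; 1.5% (about 1,000) showed 50% or more at least once.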

Values are the deposited “Percent Effect”, in %.
The controls that fix the scale are not given in the record; negative values are as filed.
Compounds were drawn at random from those tested, without regard to their results.

For CC(C)c1nnc2n1CCN(C(=O)c1ccc(CN(C)C)cc1)C2 the result was T. brucei: -19.61%; Leishmania in macrophages: 18.52%.
For Cc1ccc2oc(=O)n(CCC(=O)N3CCN(C)C(=O)C3)c2c1 the result was T. brucei: -9.951%; Leishmania in macrophages: -7.65%.
For Cn1cc(C2CCCN2C(=O)COC2CCCCC2)cn1 (stereo not given) the result was T. brucei: 5.945%; Leishmania in macrophages: 22.99%.
For Cn1c(C2CC2)nc2cc(NC(=O)C3CC=CC3)ccc21 the result was T. brucei: -12.52%; Leishmania in macrophages: 8.026%.
For O=C(O)C(F)(F)F.O=C(O)C(F)(F)F.[H][C@]12CCN(Cc3cccnc3)CC[C@@]1([H])S(=O)(=O)N(CC(C)C)C2 the result was Leishmania in macrophages: 42.36%.
For COc1ccc(C(C)N2CCC(CNC(C)=O)CC2)cc1Cl (stereo not given) the result was Leishmania in macrophages: 1.709%.
For COC(=O)NCC(=O)NC(c1ccc(Cl)cc1)C(F)(F)F (stereo not given) the result was T. brucei: 16.96%; Leishmania in macrophages: 8.286%.
For CC(C)NC(=O)CCNC(=O)c1c(Br)c2ccccc2n1C the result was T. brucei: -40.77%; Leishmania in macrophages: 2.195%.
For Cc1cccn2c(CC(=O)N3CCC(Oc4ncccn4)CC3)cnc12 the result was T. brucei: -15.47%; Leishmania in macrophages: 10.4%.
For c1coc(-c2nnc(CN3CCCC(CN4CCCCCC4)C3)o2)c1 (stereo not given) the result was T. brucei: 16.49%; Leishmania in macrophages: 26.14%.
For Cn1cc(C(=O)NCc2ccc(N3CCNC(=O)C3)c(F)c2)cn1 the result was T. brucei: -42.43%; Leishmania in macrophages: 1.513%.
For CNC(=O)CCc1cccc(C2CCCN(c3cc(C)ncn3)C2)n1 (stereo not given) the result was T. brucei: -1.91%; Leishmania in macrophages: -1.025%.
For COc1nc2c(cc1C(=O)NCc1nc(CSC)no1)CCC2 the result was T. brucei: -44.82%; Leishmania in macrophages: -25.92%.
For Cc1ccnc(NCCNC(=O)C2CC3(CCNCC3)CN2C)c1 (stereo not given) the result was T. brucei: 8.758%; Leishmania in macrophages: -8.685%.
For CC(=O)N(C)c1nc(CN2CCOC(Cn3cccn3)C2)cs1 (stereo not given) the result was T. brucei: 7.548%; Leishmania in macrophages: 30.5%.
For CCn1cc(NC(=O)NCCN2CCCCCC2=O)cn1 the result was T. brucei: -94.75%; Leishmania in macrophages: 11.74%.
For CC(C(=O)Nc1ccc(C#N)cc1)N1CCc2ccccc21 (stereo not given) the result was T. brucei: 20.68%; Leishmania in macrophages: 5.062%.
For C[S+]([O-])CCNCc1ccc(OCc2cscn2)cc1 (stereo not given) the result was T. brucei: 2.311%; Leishmania in macrophages: 18.12%.
For CC(CCCC(C)(C)O)Nc1ccc(-c2nccn2C)nn1 (stereo not given) the result was T. brucei: -120.4%; Leishmania in macrophages: -20.93%.
For CC1N(c2cnn(C)c2)C(=O)COC12CCN(Cc1ccco1)CC2.O=C(O)C(F)(F)F (stereo not given) the result was T. brucei: -18.65%; Leishmania in macrophages: 8.426%.
For COC(=O)C(C)Sc1nnnn1C1CCOCC1 (stereo not given) the result was T. brucei: -4.748%; Leishmania in macrophages: 17.71%.
For COc1ccccc1OC1(C(=O)O)CCN(c2nccnc2C)CC1 the result was T. brucei: 26.63%; Leishmania in macrophages: 17.12%.
For Cc1cn2c(n1)CCC(NC(=O)c1csc(C(C)C)n1)C2 (stereo not given) the result was Leishmania in macrophages: 23.21%.
For CC(C)(C)n1ccc(C(=O)N2CCCC(c3ncc[nH]3)C2)c1 (stereo not given) the result was T. brucei: 27.82%; Leishmania in macrophages: -12.68%.
For COC(=O)c1ccc(CCn2cnc(C#N)n2)cc1 the result was T. brucei: -68.55%; Leishmania in macrophages: 6.08%.
For O=C(NCCOc1ccc(C(F)(F)F)cn1)c1ccoc1 the result was T. brucei: 13.15%; Leishmania in macrophages: 16.19%.
For COc1cccc(OCCCc2cncc(C(N)=O)c2)c1 the result was T. brucei: -298.7%; Leishmania in macrophages: 7.084%.
For Cc1nc2c(C)cccc2cc1C(=O)N1CCC2(CC1)NCCNC2=O the result was T. brucei: -15.66%; Leishmania in macrophages: -30.27%.
For Cc1ccc(OCC(=O)NCc2sccc2C)nc1 the result was T. brucei: -36.09%; Leishmania in macrophages: 18.21%.
For [H][C@@]12CS(=O)(=O)C[C@]1([H])N(Cc1ncc[nH]1)CCN2Cc1ccc(CC)cn1 the result was T. brucei: 16.07%; Leishmania in macrophages: 9.969%.
For O=C(CO)N1CCOC2(CCCN(c3ncc(F)cn3)C2)C1.O=C(O)C(F)(F)F (stereo not given) the result was T. brucei: -12.68%; Leishmania in macrophages: 7.079%.
For c1ccc(OCc2ccncc2)c(CNC2CCc3ncnn3C2)c1 (stereo not given) the result was T. brucei: -27.38%; Leishmania in macrophages: 17.01%.
For Cc1cc(C(=O)N(C)Cc2cccs2)nc(N2CCCCC2)n1 the result was T. brucei: -4.794%; Leishmania in macrophages: -82.79%.
For CC(CNC(=O)Nc1ccc(F)cc1Br)N1CCOCC1 (stereo not given) the result was T. brucei: -87.33%; Leishmania in macrophages: 3.647%.
For O=C1NCCCCC1NC(=O)N1CCCc2ccccc21 (stereo not given) the result was T. brucei: -4.737%; Leishmania in macrophages: -21.29%.
For [H][C@@]12C[C@@H](c3nc(C)no3)CN(S(=O)(=O)CC)[C@]1([H])CCO2 the result was T. brucei: -2.106%; Leishmania in macrophages: 26.19%.
For O=C(Cc1ccccc1)N1CCN(Cc2noc(C3CC3)n2)CC1 the result was T. brucei: -10.65%; Leishmania in macrophages: -5.978%.
For O=C(C1CCCC1)N1CCC(C2CCN(Cc3ccc(Cl)cc3)C2)CC1 (stereo not given) the result was T. brucei: -22.47%; Leishmania in macrophages: 3.103%.
For CC(C)Nc1ncnc2c1CCN(C(=O)Cc1cccs1)CC2 the result was T. brucei: 42.65%; Leishmania in macrophages: 9.639%.
For CC(C)c1nn(C)c(N(C)C)c1CNCc1cscn1.Cl the result was T. brucei: -2.178%; Leishmania in macrophages: 1.792%.
For Cn1nc2c(cc1=O)CN(Cc1nnc(-c3ccc(F)cc3)o1)CC2 the result was T. brucei: -10.81%; Leishmania in macrophages: 11.91%.

Source: ChEMBL document CHEMBL3988442, “University of Dundee, Small-Polar-MMV Screening Library” (2021).